These are yes or no findings as the source states them, for the method shown. Binding seen in cells or lysates may run through a third protein. A yes stands for co-enrichment or nearness to the bait. Other partners may have been found.
Molecular target: fibrinogen-like protein 1 (FGL1) (human (endogenous in PC9)) (UniProt Q08830)
Experiment: affinity purification with mass spectrometry; PC9 total lysate (SD-002 buffer) incubated at 4 °C for 8 h with anti-FGL1 antibody (ab170922; Abcam), then Protein A/G agarose for 2 h; washed with lysis buffer; analysed by mass spectrometry

Protein sequences, listed by entry. Tags and fused reporters are not part of them. Residues count along the entry.
UniProt Q08830, residues 23-312: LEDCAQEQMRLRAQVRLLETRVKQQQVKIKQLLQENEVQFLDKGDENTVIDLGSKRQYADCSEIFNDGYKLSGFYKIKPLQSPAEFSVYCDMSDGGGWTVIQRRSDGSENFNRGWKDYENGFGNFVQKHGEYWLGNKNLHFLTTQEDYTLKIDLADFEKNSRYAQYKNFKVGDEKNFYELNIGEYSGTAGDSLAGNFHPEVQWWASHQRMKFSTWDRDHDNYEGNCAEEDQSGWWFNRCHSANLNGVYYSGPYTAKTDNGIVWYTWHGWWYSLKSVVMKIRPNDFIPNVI
UniProt P35579: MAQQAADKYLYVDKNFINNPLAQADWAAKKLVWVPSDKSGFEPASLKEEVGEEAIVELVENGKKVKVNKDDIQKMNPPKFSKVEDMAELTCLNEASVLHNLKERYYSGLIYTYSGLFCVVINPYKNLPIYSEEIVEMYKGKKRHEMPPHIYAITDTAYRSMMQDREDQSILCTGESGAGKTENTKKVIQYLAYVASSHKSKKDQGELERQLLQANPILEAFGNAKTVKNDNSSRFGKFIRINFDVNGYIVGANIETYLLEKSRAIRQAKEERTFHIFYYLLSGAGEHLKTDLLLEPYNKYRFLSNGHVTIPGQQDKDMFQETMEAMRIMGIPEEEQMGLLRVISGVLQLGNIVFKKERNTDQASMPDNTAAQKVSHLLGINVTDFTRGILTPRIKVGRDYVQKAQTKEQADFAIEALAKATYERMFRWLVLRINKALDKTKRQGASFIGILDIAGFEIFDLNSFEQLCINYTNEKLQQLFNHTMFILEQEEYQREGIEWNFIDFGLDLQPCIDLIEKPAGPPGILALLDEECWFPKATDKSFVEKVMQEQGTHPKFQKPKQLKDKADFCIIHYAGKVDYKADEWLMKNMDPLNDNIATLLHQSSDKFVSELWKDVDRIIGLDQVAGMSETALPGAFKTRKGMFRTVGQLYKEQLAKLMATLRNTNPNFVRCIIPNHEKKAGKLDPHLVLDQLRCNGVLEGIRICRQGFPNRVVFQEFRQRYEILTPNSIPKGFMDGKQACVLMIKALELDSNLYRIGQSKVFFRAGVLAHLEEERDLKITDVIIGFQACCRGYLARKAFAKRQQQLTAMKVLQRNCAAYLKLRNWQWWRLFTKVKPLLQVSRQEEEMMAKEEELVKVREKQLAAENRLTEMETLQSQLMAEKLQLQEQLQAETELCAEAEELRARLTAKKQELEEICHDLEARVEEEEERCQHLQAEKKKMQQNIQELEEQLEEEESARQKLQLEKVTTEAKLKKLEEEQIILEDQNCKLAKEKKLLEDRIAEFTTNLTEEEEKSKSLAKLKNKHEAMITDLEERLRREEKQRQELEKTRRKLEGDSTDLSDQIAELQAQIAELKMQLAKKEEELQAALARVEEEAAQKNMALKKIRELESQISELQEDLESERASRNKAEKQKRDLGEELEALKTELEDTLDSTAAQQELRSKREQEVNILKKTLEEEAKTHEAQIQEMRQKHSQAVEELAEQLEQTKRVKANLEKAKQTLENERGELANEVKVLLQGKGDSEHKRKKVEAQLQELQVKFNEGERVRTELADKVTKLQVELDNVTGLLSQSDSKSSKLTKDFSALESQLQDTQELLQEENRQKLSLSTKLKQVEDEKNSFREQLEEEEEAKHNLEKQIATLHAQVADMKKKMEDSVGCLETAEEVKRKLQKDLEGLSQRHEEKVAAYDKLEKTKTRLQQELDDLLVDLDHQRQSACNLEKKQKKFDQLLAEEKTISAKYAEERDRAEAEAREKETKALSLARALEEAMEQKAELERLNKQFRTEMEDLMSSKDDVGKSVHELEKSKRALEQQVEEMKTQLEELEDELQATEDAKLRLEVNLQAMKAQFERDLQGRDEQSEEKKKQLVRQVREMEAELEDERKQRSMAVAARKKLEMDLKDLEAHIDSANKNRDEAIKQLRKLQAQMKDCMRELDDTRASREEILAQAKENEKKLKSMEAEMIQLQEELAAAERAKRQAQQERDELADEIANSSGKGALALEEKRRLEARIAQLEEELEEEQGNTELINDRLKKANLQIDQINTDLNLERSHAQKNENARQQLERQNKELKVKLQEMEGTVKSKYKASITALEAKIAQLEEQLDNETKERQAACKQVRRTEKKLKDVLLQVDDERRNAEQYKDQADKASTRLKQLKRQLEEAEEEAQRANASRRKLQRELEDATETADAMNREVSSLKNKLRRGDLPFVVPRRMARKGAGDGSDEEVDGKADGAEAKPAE

In the case of “Myosin heavy chain 9 (MYH9) (from UniProt P35579 1-1960)”, the binding is reported as “binds”.
